Data reported in the supplement of paper PMC8728848.
The other results are listed elsewhere or left out.

Legend:
Assay in all cases: glycan array binding signal (z-score within array); higher = stronger binding
Details in all cases: glycan notation: IUPAC condensed, linker removed
[1] = target: Fuc(a1-2)Gal
How it was run: (§1)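 Columns mapping to the same glycan were averaged after glycan names were converted to IUPAC-condensed notation. The data come from 3228 arrays in the Consortium for Functional Glycomics database, limited to those with an available protein sequence. Binding is reported as a within-array Z-score averaged across arrays of one protein sequence and across linkers.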

[2] = target: Fuc(a1-2)Gal(b1-3)GalNAc
How it was run: as §1

[3] = target: Fuc(a1-2)Gal(b1-3)GalNAc(a1-3)[Fuc(a1-2)]Gal(b1-4)Glc
How it was run: as §1

[4] = target: Fuc(a1-2)Gal(b1-3)GalNAc(a1-3)[Fuc(a1-2)]Gal(b1-4)GlcNAc
How it was run: as §1

[5] = target: Fuc(a1-2)Gal(b1-3)GalNAc(b1-3)Gal
How it was run: as §1

[6] = target: Fuc(a1-2)Gal(b1-3)GalNAc(b1-3)Gal(a1-4)Gal(b1-4)Glc
How it was run: as §1

[7] = target: Fuc(a1-2)Gal(b1-3)GalNAc(b1-4)[Neu5Ac(a2-3)]Gal(b1-4)Glc
How it was run: as §1

[8] = target: Fuc(a1-2)Gal(b1-3)GlcNAc
How it was run: as §1

[9] = target: Fuc(a1-2)Gal(b1-3)GlcNAc(b1-2)Man(a1-3)[Fuc(a1-2)Gal(b1-3)GlcNAc(b1-2)Man(a1-6)]Man(b1-4)GlcNAc(b1-4)GlcNAc
How it was run: as §1

[10] = target: Fuc(a1-2)Gal(b1-3)GlcNAc(b1-2)Man(a1-3)[Fuc(a1-2)Gal(b1-3)GlcNAc(b1-2)Man(a1-6)]Man(b1-4)GlcNAc(b1-4)[Fuc(a1-6)]GlcNAc
How it was run: as §1

[11] = target: Fuc(a1-2)Gal(b1-3)GlcNAc(b1-3)Gal(b1-4)Glc
How it was run: as §1

[12] = target: Fuc(a1-2)Gal(b1-3)GlcNAc(b1-3)GalNAc
How it was run: as §1

[13] = target: Fuc(a1-2)Gal(b1-3)GlcNAc(b1-3)[Fuc(a1-2)Gal(b1-3)GlcNAc(b1-6)]GalNAc
How it was run: as §1

[14] = target: Fuc(a1-2)Gal(b1-3)GlcNAc(b1-3)[Gal(b1-4)GlcNAc(b1-6)]Gal(b1-4)Glc
How it was run: as §1

[15] = target: Fuc(a1-2)Gal(b1-3)GlcNAc(b1-3)[Neu5Ac(a2-6)Gal(b1-4)GlcNAc(b1-6)]Gal(b1-4)Glc
How it was run: as §1

[16] = target: Fuc(a1-2)Gal(b1-3)GlcNAc6S
How it was run: as §1

[17] = target: Fuc(a1-2)Gal(b1-3)[Fuc(a1-4)]GlcNAc
How it was run: as §1

[18] = target: Fuc(a1-2)Gal(b1-3)[Fuc(a1-4)]GlcNAc(b1-2)Man(a1-3)[Fuc(a1-2)Gal(b1-3)[Fuc(a1-4)]GlcNAc(b1-2)Man(a1-3)]Man(b1-4)GlcNAc(b1-4)GlcNAc
How it was run: as §1

[19] = target: Fuc(a1-2)Gal(b1-3)[Fuc(a1-4)]GlcNAc(b1-2)Man(a1-3)[Fuc(a1-2)Gal(b1-3)[Fuc(a1-4)]GlcNAc(b1-2)Man(a1-6)]Man(b1-4)GlcNAc(b1-4)[Fuc(a1-6)]GlcNAc(b1-4)[Fuc(a1-6)]GlcNAc
How it was run: as §1

[20] = target: Fuc(a1-2)Gal(b1-3)[Fuc(a1-4)]GlcNAc(b1-3)[Fuc(a1-3)[Gal(b1-4)]GlcNAc(b1-6)]Gal(b1-4)Glc
How it was run: as §1

[21] = target: Fuc(a1-2)Gal(b1-3)[Fuc(a1-4)]GlcNAc(b1-3)[Gal(b1-4)GlcNAc(b1-6)]Gal(b1-4)Glc
How it was run: as §1

[22] = target: Fuc(a1-2)Gal(b1-4)Fuc(a1-3)]GlcNAc(b1-2)Man(a1-3)[Fuc(a1-2)Gal(b1-4)[Fuc(a1-3)]GlcNAc(b1-2)Man(a1-6)]Man(b1-4)GlcNAc(b1-4)GlcNAc
How it was run: as §1

[23] = target: Fuc(a1-2)Gal(b1-4)Glc
How it was run: as §1

[24] = target: Fuc(a1-2)Gal(b1-4)Glc6S
How it was run: as §1

[25] = target: Fuc(a1-2)Gal(b1-4)GlcNAc
How it was run: as §1

[26] = target: Fuc(a1-2)Gal(b1-4)GlcNAc(b1-2)Man
How it was run: as §1

[27] = target: Fuc(a1-2)Gal(b1-4)GlcNAc(b1-2)Man(a1-3)[Fuc(a1-2)Gal(b1-4)GlcNAc(b1-2)Man(a1-6)]Man(b1-4)GlcNAc(b1-4)GlcNAc
How it was run: as §1

[28] = target: Fuc(a1-2)Gal(b1-4)GlcNAc(b1-2)Man(a1-3)[Fuc(a1-2)Gal(b1-4)GlcNAc(b1-2)Man(a1-6)]Man(b1-4)GlcNAc(b1-4)[Fuc(a1-6)]GlcNAc
How it was run: as §1

[29] = target: Fuc(a1-2)Gal(b1-4)GlcNAc(b1-2)[Fuc(a1-2)Gal(b1-4)GlcNAc(b1-4)]Man(a1-3)[Fuc(a1-2)Gal(b1-4)GlcNAc(b1-2)Man(a1-6)]Man(b1-4)GlcNAc(b1-4)GlcNAc
How it was run: as §1

[30] = target: Fuc(a1-2)Gal(b1-4)GlcNAc(b1-3)Gal(b1-4)GlcNAc
How it was run: as §1

[31] = target: Fuc(a1-2)Gal(b1-4)GlcNAc(b1-3)Gal(b1-4)GlcNAc(b1-2)Man(a1-3)[Fuc(a1-2)Gal(b1-4)GlcNAc(b1-3)Gal(b1-4)GlcNAc(b1-2)Man(a1-6)]Man(b1-4)GlcNAc(b1-4)GlcNAc
How it was run: as §1

[32] = target: Fuc(a1-2)Gal(b1-4)GlcNAc(b1-3)Gal(b1-4)GlcNAc(b1-3)Gal(b1-4)GlcNAc
How it was run: as §1

[33] = target: Fuc(a1-2)Gal(b1-4)GlcNAc(b1-3)GalNAc
How it was run: as §1

[34] = target: Fuc(a1-2)Gal(b1-4)GlcNAc(b1-3)[Fuc(a1-2)Gal(b1-4)GlcNAc(b1-6)]GalNAc
How it was run: as §1

[35] = target: Fuc(a1-2)Gal(b1-4)GlcNAc(b1-3)[Fuc(a1-3)[Gal(b1-4)]GlcNAc(b1-6)]Gal(b1-4)Glc
How it was run: as §1

[36] = target: Fuc(a1-2)Gal(b1-4)GlcNAc(b1-6)GalNAc
How it was run: as §1

[37] = target: Fuc(a1-2)Gal(b1-4)GlcNAc6S
How it was run: as §1

[38] = target: Fuc(a1-2)Gal(b1-4)[Fuc(a1-3)]GlcNAc
How it was run: as §1

[39] = target: Fuc(a1-2)Gal(b1-4)[Fuc(a1-3)]GlcNAc(b1-2)Man(a1-3)[Fuc(a1-2)Gal(b1-4)[Fuc(a1-3)]GlcNAc(b1-2)Man(a1-6)]Man(b1-4)GlcNAc(b1-4)[Fuc(a1-6)]GlcNAc
How it was run: as §1

[40] = target: Fuc(a1-2)Gal(b1-4)[Fuc(a1-3)]GlcNAc(b1-2)[Fuc(a1-2)Gal(b1-4)[Fuc(a1-3)]GlcNAc(b1-4)]Man(a1-3)[Fuc(a1-2)Gal(b1-4)[Fuc(a1-3)]GlcNAc(b1-2)Man(a1-6)]Man(b1-4)GlcNAc(b1-4)GlcNAc
How it was run: as §1

[41] = target: Fuc(a1-2)Gal(b1-4)[Fuc(a1-3)]GlcNAc(b1-3)Gal(b1-4)[Fuc(a1-3)]GlcNAc
How it was run: as §1

[42] = target: Fuc(a1-2)Gal(b1-4)[Fuc(a1-3)]GlcNAc(b1-3)Gal(b1-4)[Fuc(a1-3)]GlcNAc(b1-3)Gal(b1-4)[Fuc(a1-3)]GlcNAc
How it was run: as §1

[43] = target: Fuc(a1-2)Gal(b1-4)[Fuc(a1-3)]GlcNAc(b1-3)GalNAc
How it was run: as §1

[44] = target: Fuc(a1-2)Gal(b1-4)[Fuc(a1-3)]GlcNAc(b1-3)[Neu5Ac(a2-6)Gal(b1-4)GlcNAc(b1-6)]Gal(b1-4)Glc
How it was run: as §1

[45] = target: Fuc(a1-2)Gal3S(b1-4)GlcNAc
How it was run: as §1

B1: HA-00510 (Pseudomonas aeruginosa), Q02V39_PSEAB (protein)
chain: GVPIVNIATPNGAGLSNNHFRDYNVGANGLILNNATGKTQGTQLGGIILGNPNLKGQAAQVILNQVTGGNRSTLAGYTEVAGQSARVIVANPHGITCQGCGFINTPRATLTTGKPIMDGQRLERFQVDGGDIVVEGAELNVGNLEQFDLITRSAKLNAKLYAKNLNIVTGRNDVQADSLQATPRAADGSEKPQLAIDSSALGGMYAGAIRLVGTEQGVGVKLAGDMAASGGDIRIDASGKLSLAQASSQGDLKIAAQAVELNGKTYAGGSAEIRSAEELVNRQS
Q: For B1, which “glycan array binding signal (z-score)” value [1] is on record?
A: The value was 1.4.

Q: What about the “glycan array binding signal (z-score)” value [2] of the same binder?
A: Its value is -0.466.

Q: And the “glycan array binding signal (z-score)” value [3]?
A: The value was -0.384.

Q: And the “glycan array binding signal (z-score)” value [4]?
A: The value was -0.148.

Q: What about the “glycan array binding signal (z-score)” value [5] of the same binder?
A: The value was -0.766.

Q: And the “glycan array binding signal (z-score)” value [6]?
A: Its value is 0.441.

Q: And the “glycan array binding signal (z-score)” value [7]?
A: The value was 0.186.

Q: And the “glycan array binding signal (z-score)” value [8]?
A: The value was 0.

Q: What about the “glycan array binding signal (z-score)” value [9] of the same binder?
A: Its value is 0.653.

Q: And the “glycan array binding signal (z-score)” value [10]?
A: Its value is 0.044.

Q: What about the “glycan array binding signal (z-score)” value [11] of the same binder?
A: The value was 0.261.

Q: And the “glycan array binding signal (z-score)” value [12]?
A: Its value is -0.39.

Q: And the “glycan array binding signal (z-score)” value [13]?
A: The value was -0.245.

Q: What about the “glycan array binding signal (z-score)” value [14] of the same binder?
A: The value was -0.275.

Q: And the “glycan array binding signal (z-score)” value [15]?
A: Its value is -0.6.

Q: What about the “glycan array binding signal (z-score)” value [16] of the same binder?
A: Its value is -1.04.

Q: And the “glycan array binding signal (z-score)” value [17]?
A: The value was -0.543.

Q: And the “glycan array binding signal (z-score)” value [18]?
A: The value was 0.207.

Q: What about the “glycan array binding signal (z-score)” value [19] of the same binder?
A: Its value is 0.081.

Q: And the “glycan array binding signal (z-score)” value [20]?
A: The value was 0.61.

Q: And the “glycan array binding signal (z-score)” value [21]?
A: Its value is -0.461.

Q: What about the “glycan array binding signal (z-score)” value [22] of the same binder?
A: Its value is 0.511.

Q: What about the “glycan array binding signal (z-score)” value [23] of the same binder?
A: Its value is 1.07.

Q: What about the “glycan array binding signal (z-score)” value [24] of the same binder?
A: Its value is -0.055.

Q: And the “glycan array binding signal (z-score)” value [25]?
A: The value was 0.548.

Q: And the “glycan array binding signal (z-score)” value [26]?
A: Its value is 0.386.

Q: What about the “glycan array binding signal (z-score)” value [27] of the same binder?
A: The value was 0.561.

Q: And the “glycan array binding signal (z-score)” value [28]?
A: The value was -0.666.

Q: What about the “glycan array binding signal (z-score)” value [29] of the same binder?
A: Its value is 1.8.

Q: And the “glycan array binding signal (z-score)” value [30]?
A: The value was 0.244.

Q: What about the “glycan array binding signal (z-score)” value [31] of the same binder?
A: The value was 0.544.

Q: What about the “glycan array binding signal (z-score)” value [32] of the same binder?
A: Its value is 0.262.

Q: What about the “glycan array binding signal (z-score)” value [33] of the same binder?
A: The value was 1.33.

Q: And the “glycan array binding signal (z-score)” value [34]?
A: Its value is -0.394.

Q: What about the “glycan array binding signal (z-score)” value [35] of the same binder?
A: The value was 0.07.

Q: What about the “glycan array binding signal (z-score)” value [36] of the same binder?
A: Its value is 0.473.

Q: What about the “glycan array binding signal (z-score)” value [37] of the same binder?
A: Its value is -0.534.

Q: What about the “glycan array binding signal (z-score)” value [38] of the same binder?
A: Its value is -0.457.

Q: And the “glycan array binding signal (z-score)” value [39]?
A: The value was -0.707.

Q: And the “glycan array binding signal (z-score)” value [40]?
A: The value was 1.48.

Q: And the “glycan array binding signal (z-score)” value [41]?
A: Its value is -0.398.

Q: And the “glycan array binding signal (z-score)” value [42]?
A: Its value is 0.223.

Q: And the “glycan array binding signal (z-score)” value [43]?
A: The value was 1.16.

Q: And the “glycan array binding signal (z-score)” value [44]?
A: Its value is -0.273.

Q: And the “glycan array binding signal (z-score)” value [45]?
A: Its value is -0.764.
